From PubChem BioAssay AID1347076 (National Center for Advancing Translational Sciences (NCATS), 2019)
Hit rate of the full screen: of about 400,000 compounds, about 13,000 (3.2%) were called active. This list was built around the results that the source calls inconclusive (neither active nor inactive); the mix of calls is not that of the screen. Calls follow the shape of the dose curve; as a rule, active = well fitted cell-killing curve with a large enough effect; inconclusive = small, poorly fitted or top-dose-only effect, or effect the other way; inactive = flat fitted curve, though single readings scatter. Potencies of inconclusive entries are doubtful fits and often do not repeat.
% is scaled to controls: 0 for no effect and ±100 for the full control effect; potency is read from the fitted curve at half-maximal effect.

Assay: qHTS assay for MDR1-selective chemotherapeutics: Primary screen using the drug-selected MDR subline cells KB-V1; also: nearly all actives have a fitted effect of over 60% in size
Details: KB-V1 MDR cells viability, CellTiter-Glo, 72 h; activity change, negative = cytotoxicity: at 46.1 µM (top of the series)
Method in brief: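 Cytotoxicity via CellTiter-Glo luminescence after 72 h compound exposure at 37 degrees C. Cells: drug-selected KB-V1 line, DMEM phenol-red free plus 10% FBS. Compounds tested at multiple concentrations; normalized data fitted to concentration-effect curves.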
With `O=C(Nc1nc2cc3c(cc2s1)OCCO3)c1ccco1` the Potency was active: 11.6 µM. For `COc1ccc(OC)c2[nH]c(=O)c(CCNC(=O)C(C)C)cc12`, the Potency was “inactive”. With `COc1ccc(-n2nnnc2S(=O)(=O)CC(=O)N2CCCCC2)cc1` the Potency was inconclusive: 18.4 µM [cytotoxic, single point]. With `CCNC(=O)NCCc1c[nH]c2ccc(Cl)cc12` the Potency was inconclusive: 29.1 µM [cytotoxic, partial curve, poor fit]. In the case of `COc1ccc(-c2oc(NC(C)=O)c(C#N)c2-c2ccc(OC)cc2)cc1`, the Potency is reported as inconclusive: 29.1 µM [cytotoxic, single point]. With `COc1ccc(CCNC(=O)c2cccc(S(=O)(=O)N3CCCCCC3)c2)cc1` the Potency was inconclusive: 18.4 µM [cytotoxic, single point]. For `Cn1c(=O)cc(OCC(=O)N2CCN(c3cccc(C(F)(F)F)c3)CC2)c2ccccc21`, the Potency was inconclusive: 3.26 µM [cytotoxic, partial curve]. For `CCC(Sc1nc2sc(C(=O)OC)c(C)c2c(=O)n1N)C(=O)NCC1CCCO1` (stereo not drawn), the Potency was active: 16.4 µM. For `COc1ccc(C)cc1S(=O)(=O)N1CCCC(C(=O)NCc2ccccn2)C1` (stereo not drawn), the Potency was inconclusive: 29.1 µM [cytotoxic, single point]. For `CCCn1c(N)c(C(=O)CN(C)CC(=O)Nc2cccc(F)c2)c(=O)[nH]c1=O`, the Potency was “inactive”. For `NC(=O)c1ccsc1NC(=O)c1ccc2c(c1)CCCC2`, the Potency was inconclusive: 8.2 µM [cytotoxic, partial curve]. With `Cc1cc(NC(=O)CSc2nc(=O)n3cc(Cl)ccc3n2)no1` the Potency was inconclusive: 32.6 µM [cytotoxic, single point]. With `CCOc1ccccc1N1CCN(Cc2ccc(OC)c(OC)c2OC)CC1` the Potency was active: 18.4 µM. For `C=CC[C@@H](Cc1ccc(F)cc1)C(=O)OC[C@H]1CCCN1C(=O)[C@H](CC=C)CC(=O)NCCO`, the Potency was “inactive”. With `Cc1ccc(C)c(Nc2ncccc2C(=O)NCc2cccs2)c1` the Potency was inconclusive: 20.6 µM [cytotoxic, single point]. For `O=C(Nc1ccc2nc(-c3ccccn3)c(-c3ccccn3)nc2c1)N1CCCC1`, the Potency was “inactive”. With `CCn1ccnc1CN(C)Cc1nc(-c2cccc(Cl)c2)no1` the Potency was inconclusive: 18.4 µM [cytotoxic, partial curve, poor fit]. In the case of `CCC(C)[C@H](NC(=O)C1CC(=O)N(c2ccc(OC)cc2)C1)C(=O)NC1CCCC1` (stereo partly drawn), the Potency is reported as inconclusive: 16.4 µM [rising, partial curve, poor fit]. With `CCc1ccc2nc(NC(=O)CCCc3cccs3)sc2c1` the Potency was inconclusive: 32.6 µM [cytotoxic, single point]. With `CCOC(=O)c1cccc(NC(=O)CCn2nc(C)c(S(=O)(=O)N3CCCCC3)c2C)c1` the Potency was inconclusive: 13 µM [cytotoxic, partial curve]. In the case of `CCCC(=O)Nc1ccc(-c2nc3ncccc3o2)cc1C`, the Potency is reported as “inactive”. For `CCOC(=O)c1ccccc1NC(=O)N1CCC(CN2CCCCC2)CC1`, the Potency was “inactive”. For `COc1ccc(C2CC(O)(c3ccccc3)Oc3cc(OC)ccc32)cc1` (stereo not drawn), the Potency was inconclusive: 4.61 µM [cytotoxic, single point]. With `Cc1cccc(Nc2nc3c(c(=O)n(C)c(=O)n3C)n2Cc2ccccc2)c1` the Potency was inconclusive: 0.651 µM [cytotoxic, full curve, poor fit]. With `COc1ccc(CCNC(=O)CSc2cc(=O)[nH]c(N)n2)cc1OC` the Potency was “inactive”. For `Cn1c(-c2ccc(F)cc2)cnc1NCc1ccccc1`, the Potency was active: 20.6 µM. With `CSc1ccc(CNC(=O)C2CCC(=O)N(CC3CCCCC3)C2)cc1` (stereo not drawn) the Potency was “inactive”. With `CC(C)NC(=O)C1(C)CSCC(=O)N1C1CCN(Cc2ccccc2)CC1` (stereo not drawn) the Potency was “inactive”. In the case of `CCc1ccccc1Nc1cc(C(=O)NC(C)c2ccccc2)c2ccccc2n1` (stereo not drawn), the Potency is reported as “inactive”. In the case of `CC(C)Oc1ccc(F)cc1-c1cc(C(=O)N2CCc3ccccc3C2)[nH]n1`, the Potency is reported as “inactive”. In the case of `O=c1c(/C=N\NS(=O)(=O)c2ccccc2)coc2ccc(Cl)cc12`, the Potency is reported as inconclusive: 0.58 µM [cytotoxic, full curve, poor fit]. With `Cc1ccc(N=C(NOC(=O)c2ccccc2)c2nonc2N)c(C)c1` the Potency was inconclusive: 0.82 µM [cytotoxic, full curve]. For `Nc1nccc(-c2cc(-c3ccc(Cl)cc3Cl)no2)n1`, the Potency was inconclusive: 23.1 µM [cytotoxic, single point]. In the case of `Clc1ccc(-n2nnnc2Sc2ncnc3sccc23)cc1`, the Potency is reported as inconclusive: 29.1 µM [cytotoxic, single point]. With `CCNC(=O)CN(C1CCCCC1)S(=O)(=O)c1ccc(F)cc1` the Potency was active: 13 µM. With `CCOC(=O)/C=C/c1ccccc1S(=O)(=O)NC(C)(C)C` the Potency was inconclusive: 13 µM [cytotoxic, partial curve]. For `Cc1nc2c(cc1C(=O)N/N=C/c1ccc(O)c(O)c1)c(=O)n(C)c(=O)n2C`, the Potency was inconclusive: 18.4 µM [rising, single point]. In the case of `Cc1nc(C(=O)NC2CC2)sc1C1(C)CC(c2ccccc2)=NO1` (stereo not drawn), the Potency is reported as inconclusive: 29.1 µM [cytotoxic, single point]. For `COc1cc(C(=O)N2CCCC(c3cc(C(=O)NCc4ccc(F)cc4)no3)C2)cc(OC)c1C` (stereo not drawn), the Potency was inconclusive: 29.1 µM [cytotoxic, single point]. With `COc1ccc(N2CCN(c3ncnc4scc(-c5ccc(C)cc5)c34)CC2)cc1` the Potency was inconclusive: 23.1 µM [cytotoxic, partial curve, poor fit]. For `C=CC[C@H](CC(=O)NCCO)C(=O)N[C@H](COC(=O)[C@@H](CC=C)Cc1ccc(F)cc1)c1ccccc1`, the Potency was inconclusive: 29.1 µM [rising, single point]. With `Cn1cccc1C(=O)NC(=O)CSc1cccc[n+]1[O-]` the Potency was inconclusive: 20.6 µM [rising, single point]. With `COc1cc(C(=O)NCCC(c2ccccc2)c2ccccc2)cc(OC)c1OC` the Potency was “inactive”. For `Cc1ccc(C(=O)NCC(=O)NCC(=O)OCC(=O)c2ccc(F)cc2)cc1`, the Potency was inconclusive: 20.6 µM [rising, single point]. For `O=S(=O)(c1ccc(Cl)cc1Br)N1CCCCC1`, the Potency was active: 18.4 µM. In the case of `COC(=O)[C@]12CCCCC=C1N(Cc1cccc3ccccc13)C(=O)[C@H](CC(=O)N1CCN(C(=O)C3CC3)CC1)C2`, the Potency is reported as inconclusive: 23.1 µM [cytotoxic, single point]. In the case of `COc1ccc2cc(S(=O)(=O)N3CCCCC3)ccc2c1S(=O)(=O)N1CCCCC1`, the Potency is reported as inconclusive: 29.1 µM [cytotoxic, single point]. In the case of `C[C@H]1CN([C@@H](C)CO)C(=O)c2cc(Br)cnc2O[C@@H]1CN(C)C(=O)c1ccncc1`, the Potency is reported as “inactive”. In the case of `CCOc1ccc2oc(C(=O)OCC(=O)NC3CCCCC3)c(C)c2c1`, the Potency is reported as “inactive”. In the case of `Nn1cnnc1N/N=C\c1ccc(-c2ccccc2[N+](=O)[O-])o1`, the Potency is reported as active: 2.06 µM. For `COc1ccc(OC)c(CCNC(=O)C(C)n2nc(C)c3c(C)n(-c4ccccc4)nc3c2=O)c1` (stereo not drawn), the Potency was inconclusive: 16.4 µM [cytotoxic, single point]. For `COCCNC(=O)C1Cc2c(-c3ccc(NC(C)=O)cc3)ccnc2O1` (stereo not drawn), the Potency was “inactive”. In the case of `O=C(NCCc1ccccc1)c1cc(-c2ccccc2)c(N2CCOCC2)s1`, the Potency is reported as “inactive”. With `Cc1cccc(-c2nc3c(c(SCC(=O)N4CCOCC4)n2)CCCC3)c1` the Potency was inconclusive: 18.4 µM [cytotoxic, partial curve]. With `CCOc1ccc(NC(=O)Cn2nnc(-c3ccccc3F)n2)cc1` the Potency was “inactive”. In the case of `CC(C#Cc1ccc2c(c1)COc1c3ccccc3nn1-2)OC(C)(C)C` (stereo not drawn), the activity change, negative = cytotoxicity is reported as inconclusive: -25.5%. In the case of `COc1ccc(NC(=O)CCOc2cc(C)ccc2C)cc1S(=O)(=O)N1CCCCC1`, the Potency is reported as inconclusive: 23.1 µM [cytotoxic, partial curve, poor fit]. In the case of `CCCCCCCc1nc2nc(C)c(Br)c(=O)n2[nH]1`, the Potency is reported as inconclusive: 4.11 µM [rising, full curve]. With `COC(=O)[C@@]1(Sc2ccc(C)cc2)CC(=O)N[C@@H]1c1ccc(C(F)(F)F)cc1` the Potency was inconclusive: 14.6 µM [cytotoxic, partial curve]. In the case of `COc1cc2c(=O)n(CCC(=O)NCC3CCCO3)c(=O)n(CC(=O)Nc3ccc(C)c(C)c3)c2cc1OC` (stereo not drawn), the Potency is reported as inconclusive: 0.0073 µM [rising, full curve]. In the case of `O=C(NC1CCN(Cc2ccccc2)CC1)C1CCN(S(=O)(=O)c2ccccc2)CC1`, the Potency is reported as inconclusive: 18.4 µM [cytotoxic, single point]. With `CC(C)c1cccc(OCCn2c(-c3ccc(Cl)cc3)nc3ccccc3c2=O)c1` the Potency was inconclusive: 1.64 µM [rising, full curve]. With `Cc1cc(C)c(C)c(S(=O)(=O)N2CCC(C(=O)NNC(=O)c3ccccc3O)CC2)c1C` the Potency was inconclusive: 16.4 µM [cytotoxic, partial curve]. For `CC1(C)CC2(CCO1)N1CC3(C)CN2CC(C)(C1)C3O` (stereo not drawn), the Potency was inconclusive: 2.59 µM [rising, partial curve, poor fit]. In the case of `COc1cccc(CCNC(=O)c2c(O)nc3ccccn3c2=O)c1`, the Potency is reported as inconclusive: 3.26 µM [cytotoxic, partial curve, poor fit]. In the case of `O=C(NCc1ccc(Cl)cc1)c1ccc(NC(=O)C2CCCO2)cc1` (stereo not drawn), the Potency is reported as inconclusive: 3.26 µM [rising, partial curve, poor fit]. With `CSc1nc2ccccc2cc1/C=C(\C#N)c1cccc(Cl)c1` the Potency was inconclusive: 16.4 µM [cytotoxic, single point]. In the case of `Cc1ccccc1C(=O)NNC(=O)C1CCCN(c2ncccn2)C1` (stereo not drawn), the Potency is reported as inconclusive: 9.2 µM [cytotoxic, partial curve, poor fit].
